{"source": "patent US7045166B2", "about": "“Sweetener compositions containing fractions of inulin” (priority 1998, dated 2006)", "origin": "cited, not measured here", "conditions": "relative to sucrose (sugar)", "note": "Some of these results come from one statement about several compounds together. Where a SMILES comes first, the peptide text is derived from it.", "data": [{"smiles": "COC(=O)[C@H](Cc1ccccc1)NC(=O)[C@@H](N)CC(=O)O", "note": "[aspartame] (H-Asp-Phe-OMe)", "values": [{"measurement": "sweetness of an equivalent dose of sucrose", "value": "180 to 300", "unit": "times"}]}]}
